Read-outs that look alike come from different tables or passages of the source. Results are given in words; binding and its absence hold for the method and conditions named. Binding seen in cells or lysates may run through a third protein. Some binding calls cover weakened binding; strength is not graded here.
B1: vacuolar protein sorting–associated protein VTA1 homolog (Vta1) (protein, UniProt Q9CR26 1-309)
chain: MAALAPLPPLPAQFKSIQHHLRTAQEHDKRDPVVAYYCRLYAMQTGMKIDSKTPECRKFLSKLMDQLEALKKQLGDNEAVTQEIVGCAHLENYALKMFLYADNEDRAGRFHKNMIKSFYTASLLIDVITVFGELTDENVKHRKYARWKATYIHNCLKNGETPQAGPVGIEEENDVEENEDVGATSLPTQPPQPSSSSAYDPSNLAPGSYSGIQIPPGAHAPANTPAEVPHSTGVTSNAVQPSPQTVPAAPAVDPDLYTASQGDIRLTPEDFARAQKYCKYAGSALQYEDVGTAVQNLQKALRLLTTGRE

The chains behind the UniProt entries cited, without tags or fusion partners.
UniProt P62627: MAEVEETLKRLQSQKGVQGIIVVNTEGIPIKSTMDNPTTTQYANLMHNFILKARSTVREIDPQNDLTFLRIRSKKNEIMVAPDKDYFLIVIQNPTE
UniProt Q9JHU4: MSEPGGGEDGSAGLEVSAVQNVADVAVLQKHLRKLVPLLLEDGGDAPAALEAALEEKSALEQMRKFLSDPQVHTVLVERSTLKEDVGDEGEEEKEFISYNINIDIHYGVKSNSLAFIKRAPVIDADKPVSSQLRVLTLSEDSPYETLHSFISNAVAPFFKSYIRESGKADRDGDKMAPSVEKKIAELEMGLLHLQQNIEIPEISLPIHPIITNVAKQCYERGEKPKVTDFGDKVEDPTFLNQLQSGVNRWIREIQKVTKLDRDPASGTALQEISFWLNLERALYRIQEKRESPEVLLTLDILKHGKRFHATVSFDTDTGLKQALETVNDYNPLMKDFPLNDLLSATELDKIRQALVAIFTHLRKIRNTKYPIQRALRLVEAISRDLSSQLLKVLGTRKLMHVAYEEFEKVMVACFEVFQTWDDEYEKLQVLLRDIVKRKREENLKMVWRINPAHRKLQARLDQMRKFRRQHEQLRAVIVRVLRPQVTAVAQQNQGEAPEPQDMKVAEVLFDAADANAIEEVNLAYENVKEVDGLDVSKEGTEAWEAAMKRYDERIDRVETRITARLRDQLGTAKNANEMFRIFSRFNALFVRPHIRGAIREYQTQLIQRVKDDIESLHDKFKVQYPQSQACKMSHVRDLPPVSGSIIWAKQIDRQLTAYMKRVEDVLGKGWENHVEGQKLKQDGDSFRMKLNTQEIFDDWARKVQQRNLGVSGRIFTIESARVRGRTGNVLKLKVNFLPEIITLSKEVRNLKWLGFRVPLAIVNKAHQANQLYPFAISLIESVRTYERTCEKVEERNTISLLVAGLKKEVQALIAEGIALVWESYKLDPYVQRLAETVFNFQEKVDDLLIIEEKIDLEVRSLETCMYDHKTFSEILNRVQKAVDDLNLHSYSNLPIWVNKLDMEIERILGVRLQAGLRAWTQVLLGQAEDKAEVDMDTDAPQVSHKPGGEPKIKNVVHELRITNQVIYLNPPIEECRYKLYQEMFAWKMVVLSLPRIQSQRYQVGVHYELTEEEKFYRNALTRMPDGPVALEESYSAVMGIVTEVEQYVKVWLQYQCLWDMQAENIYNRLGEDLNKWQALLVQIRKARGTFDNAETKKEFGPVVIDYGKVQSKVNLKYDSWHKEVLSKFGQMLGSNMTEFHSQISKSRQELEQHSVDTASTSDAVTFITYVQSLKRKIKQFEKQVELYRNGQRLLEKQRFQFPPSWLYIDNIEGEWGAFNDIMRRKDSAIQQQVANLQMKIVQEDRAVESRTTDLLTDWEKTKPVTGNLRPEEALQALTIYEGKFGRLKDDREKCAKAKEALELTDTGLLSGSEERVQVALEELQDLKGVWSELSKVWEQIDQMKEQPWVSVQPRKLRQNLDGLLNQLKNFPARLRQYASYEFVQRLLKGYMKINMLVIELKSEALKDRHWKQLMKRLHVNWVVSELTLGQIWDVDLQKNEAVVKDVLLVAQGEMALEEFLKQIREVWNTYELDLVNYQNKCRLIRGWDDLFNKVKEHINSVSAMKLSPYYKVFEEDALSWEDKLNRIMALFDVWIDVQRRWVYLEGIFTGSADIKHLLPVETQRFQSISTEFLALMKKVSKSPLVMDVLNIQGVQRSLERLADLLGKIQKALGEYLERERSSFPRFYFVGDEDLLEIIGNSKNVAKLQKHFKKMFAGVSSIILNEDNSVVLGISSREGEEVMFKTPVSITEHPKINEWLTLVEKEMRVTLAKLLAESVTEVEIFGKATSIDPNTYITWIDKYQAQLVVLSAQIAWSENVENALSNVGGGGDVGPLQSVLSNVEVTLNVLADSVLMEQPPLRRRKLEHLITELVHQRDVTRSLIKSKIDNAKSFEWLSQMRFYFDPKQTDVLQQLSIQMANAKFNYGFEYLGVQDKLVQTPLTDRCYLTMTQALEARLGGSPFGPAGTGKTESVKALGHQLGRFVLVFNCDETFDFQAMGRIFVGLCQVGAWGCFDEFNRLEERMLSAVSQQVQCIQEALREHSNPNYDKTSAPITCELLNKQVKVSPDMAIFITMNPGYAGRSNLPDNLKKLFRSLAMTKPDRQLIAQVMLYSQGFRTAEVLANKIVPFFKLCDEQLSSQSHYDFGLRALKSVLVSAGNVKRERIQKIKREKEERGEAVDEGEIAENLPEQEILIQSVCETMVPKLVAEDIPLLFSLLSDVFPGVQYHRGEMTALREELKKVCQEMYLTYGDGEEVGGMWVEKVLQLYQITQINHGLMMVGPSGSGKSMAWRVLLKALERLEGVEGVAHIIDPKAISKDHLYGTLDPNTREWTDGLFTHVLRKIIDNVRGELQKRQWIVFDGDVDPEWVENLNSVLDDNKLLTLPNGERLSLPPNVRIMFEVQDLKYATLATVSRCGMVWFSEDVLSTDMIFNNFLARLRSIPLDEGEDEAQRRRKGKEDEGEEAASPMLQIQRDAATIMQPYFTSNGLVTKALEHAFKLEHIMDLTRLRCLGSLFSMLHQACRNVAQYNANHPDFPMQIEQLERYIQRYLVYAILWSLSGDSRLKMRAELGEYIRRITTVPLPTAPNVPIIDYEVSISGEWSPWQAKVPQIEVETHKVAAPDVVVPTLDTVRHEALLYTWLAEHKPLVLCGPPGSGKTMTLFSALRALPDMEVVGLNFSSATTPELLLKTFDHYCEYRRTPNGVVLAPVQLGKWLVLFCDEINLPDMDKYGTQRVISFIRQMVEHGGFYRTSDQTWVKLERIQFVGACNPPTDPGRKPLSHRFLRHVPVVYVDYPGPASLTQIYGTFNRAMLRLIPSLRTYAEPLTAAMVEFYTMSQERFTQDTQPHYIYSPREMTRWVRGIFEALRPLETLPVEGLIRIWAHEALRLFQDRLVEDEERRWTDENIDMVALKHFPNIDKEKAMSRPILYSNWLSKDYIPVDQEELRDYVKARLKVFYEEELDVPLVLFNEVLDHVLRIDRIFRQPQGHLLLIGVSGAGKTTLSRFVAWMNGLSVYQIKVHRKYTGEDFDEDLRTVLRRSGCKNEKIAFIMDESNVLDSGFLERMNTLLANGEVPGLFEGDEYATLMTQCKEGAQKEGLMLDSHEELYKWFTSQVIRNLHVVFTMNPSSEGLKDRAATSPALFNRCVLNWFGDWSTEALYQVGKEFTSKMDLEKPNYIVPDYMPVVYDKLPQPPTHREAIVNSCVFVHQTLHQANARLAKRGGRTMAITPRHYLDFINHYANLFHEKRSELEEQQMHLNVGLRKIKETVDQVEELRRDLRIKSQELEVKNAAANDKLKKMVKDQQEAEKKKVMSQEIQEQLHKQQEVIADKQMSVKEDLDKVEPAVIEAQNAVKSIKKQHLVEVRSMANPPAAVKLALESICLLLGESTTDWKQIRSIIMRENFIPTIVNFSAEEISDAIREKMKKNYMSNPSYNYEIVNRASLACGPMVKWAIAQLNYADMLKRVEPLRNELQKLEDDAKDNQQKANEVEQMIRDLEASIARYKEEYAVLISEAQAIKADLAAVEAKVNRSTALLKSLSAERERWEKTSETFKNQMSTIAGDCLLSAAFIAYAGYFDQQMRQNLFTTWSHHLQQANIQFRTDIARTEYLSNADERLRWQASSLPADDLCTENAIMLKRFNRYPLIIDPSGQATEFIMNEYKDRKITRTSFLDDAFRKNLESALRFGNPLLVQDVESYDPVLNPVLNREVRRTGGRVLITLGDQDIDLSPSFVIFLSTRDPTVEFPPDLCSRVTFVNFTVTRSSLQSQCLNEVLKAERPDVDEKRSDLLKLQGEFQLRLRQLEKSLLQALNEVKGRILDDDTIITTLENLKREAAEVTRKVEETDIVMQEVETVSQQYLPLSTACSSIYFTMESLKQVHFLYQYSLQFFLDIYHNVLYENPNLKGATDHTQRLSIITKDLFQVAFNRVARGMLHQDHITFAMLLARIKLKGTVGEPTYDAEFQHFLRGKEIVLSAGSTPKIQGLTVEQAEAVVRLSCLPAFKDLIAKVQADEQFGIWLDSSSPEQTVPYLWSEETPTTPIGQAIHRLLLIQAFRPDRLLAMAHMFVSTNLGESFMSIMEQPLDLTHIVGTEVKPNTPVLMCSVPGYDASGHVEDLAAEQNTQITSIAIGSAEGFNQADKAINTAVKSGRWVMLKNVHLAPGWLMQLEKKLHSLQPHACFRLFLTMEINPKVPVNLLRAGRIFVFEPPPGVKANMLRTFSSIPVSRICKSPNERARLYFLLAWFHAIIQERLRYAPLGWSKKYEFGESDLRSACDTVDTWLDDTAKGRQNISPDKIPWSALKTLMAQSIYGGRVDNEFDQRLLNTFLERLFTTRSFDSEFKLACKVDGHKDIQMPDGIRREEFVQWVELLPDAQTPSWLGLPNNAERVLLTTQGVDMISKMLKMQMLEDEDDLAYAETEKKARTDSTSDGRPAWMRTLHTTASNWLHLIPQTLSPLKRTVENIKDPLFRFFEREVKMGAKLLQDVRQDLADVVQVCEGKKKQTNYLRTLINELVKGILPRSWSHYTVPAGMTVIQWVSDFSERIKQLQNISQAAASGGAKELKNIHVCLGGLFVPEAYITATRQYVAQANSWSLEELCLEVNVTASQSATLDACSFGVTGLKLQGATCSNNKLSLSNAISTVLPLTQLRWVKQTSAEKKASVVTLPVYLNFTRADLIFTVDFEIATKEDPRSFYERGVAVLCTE

Columns and labels:
[1] = molecular target: MnT–Dynlrb1 (flag-tagged miniTurbo fused to the N-terminus of dynein light chain roadblock 1), expressed in DRG neurons (mouse) (UniProt P62627); assay: proximity ligation; semiendogenous Duolink PLA in fixed cultured DRG neurons transduced with AAV MnT–Dynlrb1 or MnT-control; anti-flag with an antibody to the endogenous partner; cell bodies and axons quantified separately
[2] = molecular target: MnT–Dynlrb1 (flag-tagged miniTurbo fused to the N-terminus of dynein light chain roadblock 1), expressed in DRG neurons (mouse) (UniProt P62627); assay: as above; remark: listed apart in the source

| Molecule | binding [1] | binding [2] |
| --- | --- | --- |
| dynein heavy chain (Dync1h1) (from UniProt Q9JHU4 1-4644) | binds |  |
| B1 |  | binds |
